From US20230250164A1 come the findings set out here.

Amino acid sequences for entries named in this document (tags omitted). Residues count along the entry.
UniProt Q14116, residues 37-193: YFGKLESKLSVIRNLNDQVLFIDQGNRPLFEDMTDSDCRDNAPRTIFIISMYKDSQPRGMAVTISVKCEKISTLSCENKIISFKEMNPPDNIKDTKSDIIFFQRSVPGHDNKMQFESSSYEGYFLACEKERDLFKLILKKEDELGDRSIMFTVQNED

These are yes or no findings as the source states them, for the method shown. Some results given as binding are weak or reduced against the parent protein; the word gives no strength.

This assay deals with human interleukin-18 (IL-18), recombinant (human) (UniProt Q14116). The assay is described as follows: Luminex screening.

B1: Antibody 131B4 (antibody, V domains shown)
VH: EVQVQQSGAELVKPGASVKLSCTASGFKIKDTYIHWLKQRPEQGLEWIGRIDPANGNTIYGSKFQGKATITADTSSNTAYIQLSSLTSGDTAVYFCAGYVWFAYWGQGTLVTVSA
VL: DAVLTQTPLSLPVSLGDQASISCTSSQSLVHSNGNTYLHWYLQKPGQSPKLLIYKVSDRFSGVPDRFSGSGSGTDFTLMITRVEAEDLGVYFCSQSSLVPWTFGGGTKLEVK
On to B1, for which the binding result is recorded as “binds”.
